Data source: PubChem BioAssay AID686937 (Drosophila RNAi Screening Center, 2013)

Aim: 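Knock-downs that reduce output of a secreted reporter enzyme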 (primary screen)
Cells: Drosophila S2 cells expressing secreted horseradish peroxidase
Reagents: long dsRNA against Drosophila genes
Timing: about 5.5 days (5 days dsRNA, then 12 h reporter induction)
Treatment: reporter expression induced after 5 days of dsRNA, read 12 h later; inducer not stated
Measured: 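Chemiluminescent measurement of peroxidase in the medium 12 h after reporter induction, following 5 days of dsRNA, given as a z-score per plate; higher means more secretion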
Scale: z-score: higher = more reporter secreted into medium
The screen tested about 23,000 reagents; shown is a random part of those with a known target gene and a result. 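Reduced-secretion tags in replicate 1 do not always agree with the z-scores; no criterion for assigning the tags was given.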 Not all columns of the deposit are shown. No sequences are given here. The record does not give: the amount of reagent.

For CG42382 [DRSC07671], the entry reads z-score, replicate 1 = 0.13.
Mst87F (Male-specific RNA 87F) [DRSC16747] showed z-score, replicate 1 = -0.06.
Knock-down of CG8560 [DRSC10994] came out at: z-score, replicate 1 = 0.44.
CG12851 [DRSC04131] showed z-score, replicate 1 = 0.2.
After knock-down of E(spl)m2-BFM (Enhancer of split m2, Bearded family member) [DRSC16991], the screen gave z-score, replicate 1 = -1.33.
CG2962 [DRSC18247] showed z-score, replicate 1 = 0.58.
Against Cpr49Ae (Cuticular protein 49Ae) [DRSC07201], the values are z-score, replicate 1 = 0.12.
With knock-down of hfw (halfway) [DRSC18506], the screen gave z-score, replicate 1 = 0.28.
After knock-down of whe (what else) [DRSC20537], the screen gave z-score, replicate 1 = 0.28.
Knock-down of CG14495 [DRSC06466] resulted in: z-score, replicate 1 = -4.1; phenotype, replicate 1 = reduced secretion.

Laid out differently: entries from further up
target,dsRNA,"z-score, replicate 1","phenotype, replicate 1"
CG12851,DRSC04131,0.2,
"E(spl)m2-BFM (Enhancer of split m2, Bearded family member)",DRSC16991,-1.33,

The results go on.
Depletion of PolZ2 (DNA polymerase zeta subunit 2) [DRSC12325] resulted in: z-score, replicate 1 = 0.24.
For CG13884 [DRSC08354], the entry reads z-score, replicate 1 = 0.21.
Against CG42246 [DRSC17520], the values are z-score, replicate 1 = -0.27.
Depletion of CG9018 [DRSC08618] came out at: z-score, replicate 1 = 0.51.
CG31999 [DRSC17131] showed z-score, replicate 1 = 0.13.
CG31999 [DRSC17133] gave z-score, replicate 1 = 0.23.
